A short description of this test: qHTS Assay for Modulators of Lamin A Splicing. The settings on record: HeLa LMNA splicing GFP/RFP minigene ratio, 48 h. The procedure, abridged: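 Read-out is the ratio of GFP to DsRed2 object intensity, acquired by 488 nm laser-scanning cytometry on HeLa lamin A-EGFP minigene reporter cells. Compound incubation 48 hrs at 37 °C in Opti-MEM with 2% FBS; DMSO 0.5% final.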
(In general: qHTS replaces the single test concentration by a dilution series.)

The mark [1] stands for this setting: measured here: RFP viability control channel.
Setting [2] is: measured here: GFP splicing reporter channel.

The text below walks through data of PubChem BioAssay AID1487 (National Center for Advancing Translational Sciences (NCATS), 2009).

The structures appear in SMILES notation. Several values for one entry are separate records, joined by “and”; a condition that tells them apart may be missing. Equal values may be shown once. This is one part of the list. Further columns of the screen follow, without active or inactive calls. The list favours compounds with an active or inconclusive main result. Words in brackets tell the shape of the fitted curve; partial curves, single points and poor fits give uncertain potencies.

By AC50 is commonly meant the concentration at which the activity in the assay is half-maximal.

For the compound `C=C(C)C1CC=C(C)/C(=N\NC(=O)CNc2ccccc2OC)C1` (configuration not stated), the AC50 under setting [1] was 25.1 µM [rising, single point].
Regarding `O=C(CN1CC(=O)Oc2ccccc21)OCC(=O)c1cccc(Br)c1`, the AC50 reads like this: under setting [2], 2.24 µM [falling, partial curve]; under setting [1], 1.12 µM [falling, partial curve].
Consider `COc1ccc(S(=O)(=O)N(C)c2ccc(C(=O)N3CCCC3)cc2)cc1`, for which the AC50 under setting [2] was 0.0126 µM [rising, full curve, poor fit].
On to `CCc1ccc(NC(=O)COn2nnc3ccc(S(=O)(=O)N(C)C)cc32)cc1`, for which the AC50 under setting [1] was 20 µM [rising, single point].
Still for that read-out and setting: the result for `O=C(O)C1Nc2c(O)cc(Cl)c([N+](=O)[O-])c2C2C=CCC12` (configuration not stated) reads 0.1 µM [rising, full curve, poor fit].
As for `COc1ccc(/C=C/C(=O)c2nc3ccccc3n2CC(=O)c2ccc(OC)cc2)cc1`, the concentration at half-maximal activity (AC50) under setting [1] was 35.5 µM [rising, single point].
For the compound `COC(=O)c1ccccc1NC(=O)c1ccc(COc2ccc3c(c2)CCC3)cc1`, under setting [2], the AC50 was 1.78 µM [rising, full curve, poor fit].
Turning to `COc1ccc(Cc2noc(CN(C)Cc3ccc(-n4cccn4)cc3)n2)cc1OC`, the AC50 under setting [1] was 1.26 µM [falling, partial curve].
For `NC(=O)C[n+]1cccc(/C=N/O)c1`, under setting [2], the half-maximal activity concentration (AC50) was 0.501 µM [rising, full curve, poor fit].
Turning to `Nc1nc2ncc(CNc3ccc(C(=O)NC(CCC(=O)O)C(=O)O)cc3)nc2c(=O)[nH]1` (configuration not stated), the AC50 under setting [2] was 0.00224 µM [falling, full curve, poor fit].
For the compound `CCCCN1Cc2c(nc3cc(-c4ccccc4)[nH]n3c2=O)C1=O`, the AC50 under setting [1] is 0.0447 µM [falling, full curve, poor fit].
Take `CNc1ccccc1C(=O)N1CCc2c([nH]c3ccccc23)C1=O`: the AC50 is 15.8 µM [falling, partial curve, poor fit] under setting [2] and 20 µM [rising, single point] under setting [1].
`CCc1ccc(-c2[nH]nc3nc(-c4ccc(OC)cc4)cc(C(=O)NCCCOC)c23)cc1`: the concentration at half-maximal activity (AC50) under setting [2] is 7.08 µM [rising, partial curve].
On to `Cc1ccccc1N=C1Nc2ccccc2CS1`, for which the AC50 runs as follows: under setting [2], 11.2 µM [rising, partial curve]; under setting [1], 22.4 µM [rising, partial curve].
For `CC1CCN(CCCOc2ccc(OCc3ccccc3)cc2)CC1`, the half-maximal activity concentration (AC50) under setting [1] was 31.6 µM [rising, single point].
For `Cc1cccc(C)c1Nc1nnc(SCC(=O)c2ccc(Br)s2)s1`, the concentration at half-maximal activity (AC50) under setting [1] was 35.5 µM [rising, single point].
Take `Cc1nc2ccc(S(=O)(=O)N(CC(=O)Nc3cccc(Cl)c3)Cc3ccccc3)cc2s1`: the AC50 under setting [1] is 0.00316 µM [falling, full curve, poor fit].
As for `CC(=O)OCC1OC(Oc2cc(OC(C)=O)c3c(=O)cc(-c4ccc(OC(C)=O)cc4)oc3c2)[C@@H](OC(C)=O)C(OC(C)=O)C1OC(C)=O` (some centres not stated), the AC50 under setting [2] is 17.8 µM [falling, partial curve] and the half-maximal activity concentration (AC50) under setting [1] is 15.8 µM [falling, partial curve].
Consider `Cc1ccc(OCCN2CCN(c3ncnc4sc(C)c(C)c34)CC2)cc1`, for which the half-maximal activity concentration (AC50) was 2.82 µM [rising, full curve] under setting [2] and 2.51 µM [rising, full curve] under setting [1].
On to `CCCCOc1ccc(CNC(=O)Cc2ccc(NC(=O)N3CCCCc4ccccc43)cc2)cc1`, for which the AC50 under setting [1] is 35.5 µM [rising, single point].
In the case of `Cc1ccc(CN2CCN(Cc3c(C)nn(-c4ccc(F)cc4)c3C)CC2CCO)o1` (configuration not stated), the AC50 is 0.141 µM [falling, single point] under setting [2] and 0.1 µM [falling, single point] under setting [1].
As to `COc1ccc(-c2nc(SCC(=O)N3CCN(c4ccc(F)cc4)CC3)n[nH]2)cc1`, under setting [2], the AC50 was 1.41 µM [rising, partial curve, poor fit].
Take `CN1CCN(c2ncc3nc(CCc4ccccc4)c(=O)n(C4CC4)c3n2)CC1`: the AC50 reads like this: under setting [2], 20 µM [falling, single point]; under setting [1], 20 µM [falling, partial curve].
Take `Cn1c(Sc2ccccc2Cl)c(C=O)c2ccccc21`: under setting [2], the AC50 was 0.631 µM [falling, full curve].
For `CCOC(=O)c1c(NC(=O)C2C3C=CC(C3)C2C(=O)O)sc2c1CCC(CC)C2` (configuration not stated), under setting [1], the AC50 was 15.8 µM [rising, partial curve].
For `COc1ccc(OC)c(Nc2cc(-c3ccccc3)nc(N)n2)c1`, the AC50 under setting [2] was 35.5 µM [falling, single point].
For the compound `Nc1c2c(nc3ccccc13)CCCC2O` (configuration not stated), the AC50 runs as follows: under setting [2], 2 µM [falling, full curve]; under setting [1], 1.41 µM [falling, full curve, poor fit].
Regarding `Cc1ccc(S(=O)(=O)N2CCCc3cc(NS(=O)(=O)c4cc(F)ccc4F)ccc32)cc1`, the AC50 under setting [2] is 35.5 µM [rising, partial curve, poor fit] and the AC50 under setting [1] was 22.4 µM [rising, single point].
Regarding `CCn1c2ccccc2c2cc(NC(=O)Cc3ccc(S(=O)(=O)N4CCOCC4)s3)ccc21`, under setting [1], the AC50 was 31.6 µM [rising, single point].
Regarding `O=C(Cn1cc(S(=O)(=O)N2CCCC2)c(S(=O)(=O)N2CCCC2)c1)Nc1ccccc1`, the AC50 under setting [2] is 0.794 µM [falling, full curve, poor fit] and the AC50 under setting [1] is 0.398 µM [falling, full curve].
Turning to `CCc1nnc(NC(=O)c2ccc(S(=O)(=O)N(CC(C)C)CC(C)C)cc2)o1`, the half-maximal activity concentration (AC50) under setting [1] is 15.8 µM [rising, partial curve].
As for `O=C(N1CCOCC1)N1CCN(c2nc(-c3ccc(F)cc3)cs2)CC1`, the AC50 under setting [1] is 17.8 µM [rising, partial curve, poor fit].
As for `CC(=O)CCc1c(C)c2cccc(C)c2[nH]c1=O`, the AC50 was 20 µM [falling, partial curve, poor fit] under setting [2] and 3.55 µM [falling, partial curve, poor fit] under setting [1].
Take `COC(=O)N/N=C/c1ccc(-c2cc(Cl)cc(Cl)c2)o1`: the AC50 under setting [1] is 8.91 µM [rising, partial curve].
With `Cc1cc(N)c2ccccc2[n+]1CCCCCCCCCC[n+]1c(C)cc(N)c2ccccc21`, the concentration at half-maximal activity (AC50) under setting [2] is 5.01 µM [falling, full curve, poor fit]; the AC50 under setting [1] is 794 nM [falling, partial curve, poor fit] and 5.01 µM [falling, full curve, poor fit].
Turning to `CCN(CC)c1ccc2cc(C=O)c(=O)oc2c1`, under setting [2], the AC50 is 14.1 µM [rising, single point].
`CCCCNc1nc(-c2ccccc2)c(C(=O)OCC)cc1C#N`: the AC50 was 35.5 µM [falling, single point] under setting [2] and 35.5 µM [falling, single point] under setting [1].
Take `O=C(CC(c1ccccc1)c1ccccc1O)NCc1ccco1` (configuration not stated): the AC50 under setting [2] is 12.6 µM [rising, single point] and the AC50 under setting [1] was 12.6 µM [rising, single point].
For the compound `O=C(CSc1ncnc2scc(-c3ccc(Cl)cc3)c12)NCc1ccc2c(c1)OCO2`, the half-maximal activity concentration (AC50) is, setting by setting: under setting [2], 11.2 µM [falling, partial curve]; under setting [1], 11.2 µM [falling, single point].
For `COc1ccc(Oc2ncc3nc(-c4cccc(C#N)c4)c(=O)n(Cc4cccc(OC)c4)c3n2)cc1`, the AC50 is 10 µM [falling, partial curve] under setting [2] and 17.8 µM [falling, partial curve, poor fit] under setting [1].
As for `O=[N+]([O-])c1cc(Cl)c2cccnc2c1O`, the AC50 under setting [2] was 11.2 µM [falling, single point].
Take `CCOC(=O)C1=C(C)N=c2s/c(=C\c3ccncc3)c(=O)n2C1c1ccc2c(c1)OCO2` (configuration not stated): the AC50 under setting [1] was 12.6 µM [rising, single point].
For the compound `COc1ccc2c(c1)c(C(O)CN1CCN(Cc3ccc4c(c3)OCO4)CC1)c(C)n2C` (configuration not stated), the AC50 under setting [2] is 35.5 µM [rising, single point] and the half-maximal activity concentration (AC50) under setting [1] was 35.5 µM [rising, single point].
Regarding `CCc1cccc2c(C(=O)CSc3nncn3-c3ccc(OC)cc3)c[nH]c12`, the half-maximal activity concentration (AC50) under setting [1] is 35.5 µM [rising, single point].
On the same count and under the same terms, the result for `COc1ccc(-c2noc(CCC(=O)NCC3CCN(Cc4cccc(C)c4)CC3)n2)cc1` reads 31.6 µM [rising, single point].
As to `O=[N+]([O-])c1ccc(N2CCOCC2)cc1NC(c1ccccc1)c1ccccc1`, the half-maximal activity concentration (AC50) under setting [2] was 2.82 µM [rising, partial curve].
Consider `CCCCCCCCCCCCC/C=C/[C@@H](O)[C@@H](N)CO`, for which the AC50 reads like this: under setting [2], 5.62 µM [falling, full curve, poor fit]; under setting [1], 5.01 µM [falling, full curve, poor fit].
For the compound `CC(=O)OCC1O[C@@H](O[C@@H]2C[C@H]3C(C)(C)[C@H](OC(C)=O)CC[C@]3(C)[C@H]3CC[C@]45C[C@]4(CC[C@H]5[C@@H](C)C[C@@H](O)[C@H](O)C(C)(C)O)[C@@]32C)[C@H](O)[C@@H](O)[C@@H]1O` (some centres not stated), the AC50 under setting [1] is 17.8 µM [rising, single point].
Take `COc1ccc(CC(=O)NCCc2sc3nc(-c4ccc(OC)cc4)nn3c2C)cc1`: the AC50 under setting [2] is 14.1 µM [falling, single point].
Still for that read-out and setting: the result for `S=C(Nc1ccc2nsnc2c1)N1CCCCCC1` reads 3.55 µM [falling, single point].
Regarding `CC(C)OC(=O)Nc1ccc2c(c1)N(C(=O)CCN1CCOCC1)c1ccccc1CC2`, the AC50 runs as follows: under setting [2], 0.0282 µM [falling, full curve, poor fit]; under setting [1], 6.31 µM [falling, partial curve, poor fit].
In the case of `O=C(Nc1nnc(C(F)(F)F)s1)c1ccc(Br)s1`, the AC50 is 35.5 µM [rising, single point] under setting [2] and 12.6 µM [rising, partial curve] under setting [1].
